This experiment concerns the target T1, S-tag-GFP-CCDC6 (UniProt Q16204).
T1 sequence: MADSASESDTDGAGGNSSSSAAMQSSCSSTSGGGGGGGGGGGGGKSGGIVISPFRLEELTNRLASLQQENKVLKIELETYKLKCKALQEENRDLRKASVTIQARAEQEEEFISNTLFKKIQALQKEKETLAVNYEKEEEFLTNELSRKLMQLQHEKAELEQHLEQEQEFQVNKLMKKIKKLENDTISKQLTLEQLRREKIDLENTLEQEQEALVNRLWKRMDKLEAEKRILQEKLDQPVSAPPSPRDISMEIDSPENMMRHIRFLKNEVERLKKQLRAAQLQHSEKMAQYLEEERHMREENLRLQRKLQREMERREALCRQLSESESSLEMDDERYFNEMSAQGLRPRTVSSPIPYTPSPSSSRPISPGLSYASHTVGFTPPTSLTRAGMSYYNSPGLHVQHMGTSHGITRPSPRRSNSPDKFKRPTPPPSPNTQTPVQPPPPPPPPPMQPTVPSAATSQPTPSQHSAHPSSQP
Kind of experiment: pull-down; S-protein (S-tag) pull-down of S-tag-GFP-CCDC6 from asynchronous or mitotic (nocodazole) HeLa Kyoto extracts; immunoblot with anti-cyclin B, anti-GSK3, anti-CCDC6.

Consider 1 substance from article PMC4494967.

Results are given in words; binding and its absence hold for the method and conditions named. In cells and extracts the contact can be indirect. A result given as binding can be weak or reduced; the word gives no strength. Sequences can lack the tags named with a protein.

“glycogen synthase kinase 3 (GSK3) (human (endogenous in HeLa)) (enzyme)”: the binding result was “binds”.
